Laboratory results taken from the supplement of paper PMC3334620.
Over roughly 33,000 sequences, “E-score (-0.5 to 0.5)” has its median near -8e-05; the highest 2% begin near 0.23. The list shows a part of the results.

Biological target: T1, Nrg2 (UniProt P38082)
T1 sequence: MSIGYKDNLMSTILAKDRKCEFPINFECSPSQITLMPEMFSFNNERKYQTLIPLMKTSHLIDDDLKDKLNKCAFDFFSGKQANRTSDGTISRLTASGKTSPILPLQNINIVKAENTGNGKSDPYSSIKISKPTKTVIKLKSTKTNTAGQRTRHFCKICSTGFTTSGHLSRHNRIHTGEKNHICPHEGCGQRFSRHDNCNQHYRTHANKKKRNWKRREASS
Test: PBM E-score (8-mer binding enrichment) (E-score (-0.5 to 0.5)); higher = stronger / more preferred TF binding
Conditions: protein concentration: 100 nM; construct: GST-full length
In short: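 Masliner-normalised scans of fluorescent anti-GST signal were the basis for scoring. That signal came from GST-tagged yeast transcription factors applied at about 100-200 nM to double-stranded universal all-10-mer Agilent arrays on fresh or once-stripped slides. Each ungapped eight-base word, pooled with its reverse complement, received an E-score from the Universal PBM Analysis Suite.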

Sequence | PBM E-score
GACTGAGC | -0.208
ACGAAGCA | 0.0327
ATATCGAG | 0.0478
AATGCTCT | -0.133
CCCTCCTA | -0.0642
GCAAATAC | 0.042
AGAGTTAC | -0.161
CATTATAA | 0.049
GCCTAGTA | -0.0125
GATGGAAC | 0.0203
AATGTTTG | -0.018
ACAGTTGG | -0.111
AAGCATAG | -0.113
AACATGCT | -0.0356
GTAACGAA | 0.0314
ACCGATTG | -0.0298
TAGACAGA | 0.18
CGGGGCCC | 0.221
AATTGTCA | 0.15
CAATATTG | 0.137
AGATTCAA | 0.0745
CCCATACG | -0.0789
CGTATGCA | 0.0707
AGAGAGGC | -0.285
AAAAGAGT | -0.0952

Sequence | PBM E-score
GAAAGCTC | -0.155
CAGCCAGA | -0.0868
GAGGGTCA | -0.227
GTACATGA | -0.0972
CAACGAGG | 0.146
CATAAGCC | -0.132
CACCACGC | -0.291
TCTAGTCA | -0.0689
CTGGCATA | 0.0433
GCTCTTAC | 0.0804
CCGCGGTA | 0.119
CAACGAGA | 0.129
TGCTCAAA | -0.159
GCTCGCCC | -0.0126
AAATCTGC | 0.0596
ATTGACAC | -0.0817
ACTGATAC | -0.114
CGGAAGGA | -0.171
ATGGTTCA | 0.0644
GATAACTA | 0.122
CTAGCATA | -0.171
AAGGAGTC | -0.139
CTGAGCGC | -0.031
AACCCGTA | -0.0217
AAATGGTA | 0.22

Sequence | PBM E-score
CTTGATCC | -0.0337
AAAATGCC | -0.0751
CCTTAGAA | -0.0241
GTTCACAA | 0.0507
GCTGAGAC | -0.00984
GATGCAAA | 0.0177
AGGCCTAT | -0.224
GCTAATGA | 0.00625
CGAGCTAA | 0.0506
AACATCCT | 0.0505
GCTGGAGA | -0.167
GGCGTGAC | -0.0702
GATGCCGA | -0.0132
GTATAACA | 0.0414
ACACTTGC | 0.0656
GCCGGGTA | -0.0201
AGACGGCT | -0.278
CGTCCGGC | 0.0439
CCGGTTCA | -0.19
AAACCGGT | -0.103
GAGGTCAA | 0.00529
GCGGTCCA | -0.159
AGCGTAGG | 0.0254
ATCCAACC | 0.0142
GAAGAGGC | -0.0753

Three entries from above, in markdown.

| Sequence | PBM E-score |
| --- | --- |
| CTTGATCC | -0.0337 |
| AAAATGCC | -0.0751 |
| CCTTAGAA | -0.0241 |

Further results

Sequence | PBM E-score
CATCTAGA | -0.00757
ACTTTTAG | 0.0105
TGTTAACA | 0.104
GATTCGGA | 0.138
ACGTGTCG | -0.183
TCCCTCAA | -0.0165
GCTAGGAC | -0.211
CCTACCCA | -0.12
GGATATAA | 0.129
CATTGGCC | -0.0708
ATGGTCGC | 0.0621
ATACTCAG | 0.227
AGAGACCT | -0.0434
CCATGATA | -0.00087
GTGCACCA | -0.0107
ACATAAGC | -0.00031
GACTCTCA | -0.0326
ACACACAT | 0.0979
GCCTCGGA | -0.169
CAGTTGAG | 0.0333
ACACAGCC | -0.0944
CGACACAA | 0.0164
GCTGCGAA | 0.0318
AGATCACT | 0.218
GGTTCTTA | 0.139

Sequence | PBM E-score
TACGTCTA | -0.033
CAGATAGC | -0.124
GGCCGGGA | 0.00867
AAGTACTT | -0.0267
AATCACAT | 0.0705
AGGTCGTC | -0.057
AGATCGCG | 0.137
GCAGAAAC | 0.123
AAGTTACG | 0.0943
ACTAAAAG | 0.171
GACACGCA | -0.0337
GCTAGATA | 0.0878
AAGCTGAG | -0.00374
CCAGACTC | -0.138
GTATGGTA | 0.158
TATAGTCA | 0.0805
CTAAGAGA | -0.0214
CCCCTAGG | -0.0754
CGAGAACC | -0.00818
GACAGTAC | 0.0442
GAGAGCAC | -0.113
CTTAGTTC | 0.128
ACCGTTCT | -0.0558
GAATCTAC | 0.116
GAGTGCAA | 0.154

Sequence | PBM E-score
AAGACGGC | -0.0277
TCAAAGGA | -0.0769
ATGTTATG | 0.159
ACCACAGT | 0.0893
CGCAATGC | -0.0461
CACCACTA | 0.0192
GTAGATAC | 0.0474
CAGGACCC | 0.215
CGCAGTGA | -0.0744
ATTGTAAC | 0.122
ACATGACG | 0.00128
CCACGAAC | 0.12
GCAGGTCC | 0.00594
CCAGGACG | -0.259
CAAAATTA | 0.103
CTGCTTCA | -0.0765
CCCCAAGG | -0.109
CGTCATAA | -0.0304
AAACATGT | 0.0882
CCAACTGA | -0.106
GTTGCACA | -0.0572
AAATCCAC | 0.082
AGAGCTTG | 0.0228
AGCCCGTA | -0.241
ACGAAGAA | 0.149

Sequence | PBM E-score
ATTCACAG | 0.0998
ATGAGAGG | -0.0391
GCCACTCC | -0.111
AACGTTTA | 0.0881
GTACGATA | -0.0465
ACGCCGGA | -0.264
ACGGAATA | 0.052
AAACACCC | 0.0477
CCCGTCGC | 0.0288
ACTGCTAG | -0.128
AGGGGGGG | -0.42
AGACTTTG | -0.151
CCAAGGAA | -0.188
AATTTTGA | 0.206
GATCAGTA | 0.0743
AAAGTGTC | 0.0487
ACTATGGA | -0.182
GATAAAAA | -0.00426
CCCGTCGA | -0.0776
AGGCAAGC | -0.0964
ATTTTTTC | 0.0129
ATATACTG | 0.099

In a second layout: results already given
Sequence,PBM E-score
GATCAGTA,0.0743
AAAGTGTC,0.0487
